The assay relates to Escherichia coli 42 (mcr-1-positive clinical isolate). Briefly: OD600 after 24 h growth with compound plus colistin (absorbance units (OD600)); higher = more bacterial growth (less inhibition). Conditions: first compound 25 µM; colistin concentration 0.5 ug/mL; incubation time 24 h; 37 °C.

Where a name gives a salt, the structure may show the parent alone. This is one part of the list. This data set is noisy: repeats of one test often differ as much as different tests do.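 A screen tested FDA-approved drugs combined with one-eighth-MIC colistin against a clinical mcr-1-positive, multidrug-resistant E. coli isolate, measuring OD600 at 24 h. Controls were untreated bacteria (growth) and broth alone (blank). An OD600 under 0.2 marked a combination as active.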

With `Oc1ccc(OCc2ccccc2)cc1` [Monobenzone] + CCC(C)CCCC(=O)N[C@@H](CCN)C(=O)N[C@H](C(=O)N[C@@H](CCN)C(=O)N[C@H]1CCNC(=O)[C@H]([C@@H](C)O)NC(=O)[C@H](CCN)NC(=O)[C@H](CCN)NC(=O)[C@H](CC(C)C)NC(=O)[C@@H](CC(C)C)NC(=O)[C@H](CCN)NC1=O)[C@@H](C)O [colistin], the OD600 was inactive: 1. For the compound `S=c1nc[nH]c2nc[nH]c12` [6-Mercaptopurine] + CCC(C)CCCC(=O)N[C@@H](CCN)C(=O)N[C@H](C(=O)N[C@@H](CCN)C(=O)N[C@H]1CCNC(=O)[C@H]([C@@H](C)O)NC(=O)[C@H](CCN)NC(=O)[C@H](CCN)NC(=O)[C@H](CC(C)C)NC(=O)[C@@H](CC(C)C)NC(=O)[C@H](CCN)NC1=O)[C@@H](C)O [colistin], the OD600 is inactive: 0.952. Next, `C[C@H]1O[C@@H](O[C@H]2[C@@H](O)C[C@H](O[C@H]3[C@@H](O)C[C@H](O[C@H]4CC[C@@]5(C)[C@H](CC[C@@H]6[C@@H]5CC[C@]5(C)[C@@H](C7=CC(=O)OC7)CC[C@]65O)C4)O[C@@H]3C)O[C@@H]2C)C[C@H](O)[C@@H]1O` [Digitoxin] + CCC(C)CCCC(=O)N[C@@H](CCN)C(=O)N[C@H](C(=O)N[C@@H](CCN)C(=O)N[C@H]1CCNC(=O)[C@H]([C@@H](C)O)NC(=O)[C@H](CCN)NC(=O)[C@H](CCN)NC(=O)[C@H](CC(C)C)NC(=O)[C@@H](CC(C)C)NC(=O)[C@H](CCN)NC1=O)[C@@H](C)O [colistin]: inactive: 1.02.

Regarding `CCCC1O[C@@H]2C[C@H]3[C@@H]4CCC5=CC(=O)C=C[C@]5(C)[C@H]4[C@@H](O)C[C@]3(C)[C@]2(C(=O)CO)O1` (some centres undefined) [Budesonide] + CCC(C)CCCC(=O)N[C@@H](CCN)C(=O)N[C@H](C(=O)N[C@@H](CCN)C(=O)N[C@H]1CCNC(=O)[C@H]([C@@H](C)O)NC(=O)[C@H](CCN)NC(=O)[C@H](CCN)NC(=O)[C@H](CC(C)C)NC(=O)[C@@H](CC(C)C)NC(=O)[C@H](CCN)NC1=O)[C@@H](C)O [colistin], the OD600 is inactive: 1.04. As for `CNC[C@H](O)c1cccc(O)c1` [Phenylephrine hydrochloride] + CCC(C)CCCC(=O)N[C@@H](CCN)C(=O)N[C@H](C(=O)N[C@@H](CCN)C(=O)N[C@H]1CCNC(=O)[C@H]([C@@H](C)O)NC(=O)[C@H](CCN)NC(=O)[C@H](CCN)NC(=O)[C@H](CC(C)C)NC(=O)[C@@H](CC(C)C)NC(=O)[C@H](CCN)NC1=O)[C@@H](C)O [colistin], the OD600 was inactive: 1.1. Turning to `CN(C)CCCC1(c2ccc(F)cc2)OCc2cc(C#N)ccc21` (centres undefined) [Citalopram hydrobromide] + CCC(C)CCCC(=O)N[C@@H](CCN)C(=O)N[C@H](C(=O)N[C@@H](CCN)C(=O)N[C@H]1CCNC(=O)[C@H]([C@@H](C)O)NC(=O)[C@H](CCN)NC(=O)[C@H](CCN)NC(=O)[C@H](CC(C)C)NC(=O)[C@@H](CC(C)C)NC(=O)[C@H](CCN)NC1=O)[C@@H](C)O [colistin], the OD600 is inactive: 1.11. On to `COc1cc(Nc2c(C#N)cnc3cc(OCCCN4CCN(C)CC4)c(OC)cc23)c(Cl)cc1Cl` [Bosutinib] + CCC(C)CCCC(=O)N[C@@H](CCN)C(=O)N[C@H](C(=O)N[C@@H](CCN)C(=O)N[C@H]1CCNC(=O)[C@H]([C@@H](C)O)NC(=O)[C@H](CCN)NC(=O)[C@H](CCN)NC(=O)[C@H](CC(C)C)NC(=O)[C@@H](CC(C)C)NC(=O)[C@H](CCN)NC1=O)[C@@H](C)O [colistin], for which the OD600 is active: 0.035. Next, `CC[C@@H](CO)NCCN[C@@H](CC)CO` [Ethambutol dihydrochloride] + CCC(C)CCCC(=O)N[C@@H](CCN)C(=O)N[C@H](C(=O)N[C@@H](CCN)C(=O)N[C@H]1CCNC(=O)[C@H]([C@@H](C)O)NC(=O)[C@H](CCN)NC(=O)[C@H](CCN)NC(=O)[C@H](CC(C)C)NC(=O)[C@@H](CC(C)C)NC(=O)[C@H](CCN)NC1=O)[C@@H](C)O [colistin]: inactive: 1.02; `COc1ccccc1OCC(O)CN1CCN(CC(=O)Nc2c(C)cccc2C)CC1` (centres undefined) [Ranolazine dihydrochloride] + CCC(C)CCCC(=O)N[C@@H](CCN)C(=O)N[C@H](C(=O)N[C@@H](CCN)C(=O)N[C@H]1CCNC(=O)[C@H]([C@@H](C)O)NC(=O)[C@H](CCN)NC(=O)[C@H](CCN)NC(=O)[C@H](CC(C)C)NC(=O)[C@@H](CC(C)C)NC(=O)[C@H](CCN)NC1=O)[C@@H](C)O [colistin]: inactive: 1.07.

Regarding `CN[C@H]1CC[C@@H](c2ccc(Cl)c(Cl)c2)c2ccccc21` [Sertraline hydrochloride] + CCC(C)CCCC(=O)N[C@@H](CCN)C(=O)N[C@H](C(=O)N[C@@H](CCN)C(=O)N[C@H]1CCNC(=O)[C@H]([C@@H](C)O)NC(=O)[C@H](CCN)NC(=O)[C@H](CCN)NC(=O)[C@H](CC(C)C)NC(=O)[C@@H](CC(C)C)NC(=O)[C@H](CCN)NC1=O)[C@@H](C)O [colistin], the OD600 is active: 0.037. With `Cc1cn([C@H]2C[C@H](N=[N+]=[N-])[C@@H](CO)O2)c(=O)[nH]c1=O` [Zidovudine] + CCC(C)CCCC(=O)N[C@@H](CCN)C(=O)N[C@H](C(=O)N[C@@H](CCN)C(=O)N[C@H]1CCNC(=O)[C@H]([C@@H](C)O)NC(=O)[C@H](CCN)NC(=O)[C@H](CCN)NC(=O)[C@H](CC(C)C)NC(=O)[C@@H](CC(C)C)NC(=O)[C@H](CCN)NC1=O)[C@@H](C)O [colistin], the OD600 is active: 0.035.

For `CN(C)CC/C=C1/c2ccccc2Sc2ccc(Cl)cc21` [Chlorprothixene hydrochloride] + CCC(C)CCCC(=O)N[C@@H](CCN)C(=O)N[C@H](C(=O)N[C@@H](CCN)C(=O)N[C@H]1CCNC(=O)[C@H]([C@@H](C)O)NC(=O)[C@H](CCN)NC(=O)[C@H](CCN)NC(=O)[C@H](CC(C)C)NC(=O)[C@@H](CC(C)C)NC(=O)[C@H](CCN)NC1=O)[C@@H](C)O [colistin], the OD600 was inactive: 1.16. On to `CC1=C(CC(=O)O)c2cc(F)ccc2/C1=C\c1ccc([S+](C)[O-])cc1` (centres undefined) [Sulindac] + CCC(C)CCCC(=O)N[C@@H](CCN)C(=O)N[C@H](C(=O)N[C@@H](CCN)C(=O)N[C@H]1CCNC(=O)[C@H]([C@@H](C)O)NC(=O)[C@H](CCN)NC(=O)[C@H](CCN)NC(=O)[C@H](CC(C)C)NC(=O)[C@@H](CC(C)C)NC(=O)[C@H](CCN)NC1=O)[C@@H](C)O [colistin], for which the OD600 is inactive: 1.02. Next, `FC(F)(F)c1ccc(CNc2ccc(Cc3c[nH]c4ncc(Cl)cc34)cn2)cn1` [Pexidartinib] + CCC(C)CCCC(=O)N[C@@H](CCN)C(=O)N[C@H](C(=O)N[C@@H](CCN)C(=O)N[C@H]1CCNC(=O)[C@H]([C@@H](C)O)NC(=O)[C@H](CCN)NC(=O)[C@H](CCN)NC(=O)[C@H](CC(C)C)NC(=O)[C@@H](CC(C)C)NC(=O)[C@H](CCN)NC1=O)[C@@H](C)O [colistin]: inactive: 0.977. Next, `O=C1CCc2ccc(OCCCCN3CCN(c4cccc(Cl)c4Cl)CC3)cc2N1` [Aripiprazole] + CCC(C)CCCC(=O)N[C@@H](CCN)C(=O)N[C@H](C(=O)N[C@@H](CCN)C(=O)N[C@H]1CCNC(=O)[C@H]([C@@H](C)O)NC(=O)[C@H](CCN)NC(=O)[C@H](CCN)NC(=O)[C@H](CC(C)C)NC(=O)[C@@H](CC(C)C)NC(=O)[C@H](CCN)NC1=O)[C@@H](C)O [colistin]: inactive: 0.818; `CC(C)(C)NCC(O)c1cc(O)cc(O)c1` (centres undefined) [Terbutaline Sulfate] + CCC(C)CCCC(=O)N[C@@H](CCN)C(=O)N[C@H](C(=O)N[C@@H](CCN)C(=O)N[C@H]1CCNC(=O)[C@H]([C@@H](C)O)NC(=O)[C@H](CCN)NC(=O)[C@H](CCN)NC(=O)[C@H](CC(C)C)NC(=O)[C@@H](CC(C)C)NC(=O)[C@H](CCN)NC1=O)[C@@H](C)O [colistin]: inactive: 0.722. With `CC(c1cc2ccccc2s1)N(O)C(N)=O` (centres undefined) [Zileuton] + CCC(C)CCCC(=O)N[C@@H](CCN)C(=O)N[C@H](C(=O)N[C@@H](CCN)C(=O)N[C@H]1CCNC(=O)[C@H]([C@@H](C)O)NC(=O)[C@H](CCN)NC(=O)[C@H](CCN)NC(=O)[C@H](CC(C)C)NC(=O)[C@@H](CC(C)C)NC(=O)[C@H](CCN)NC1=O)[C@@H](C)O [colistin], the OD600 was inactive: 0.875. Next, `Cc1ccnc(NS(=O)(=O)c2ccc(N)cc2)n1` [Sulfamerazine] + CCC(C)CCCC(=O)N[C@@H](CCN)C(=O)N[C@H](C(=O)N[C@@H](CCN)C(=O)N[C@H]1CCNC(=O)[C@H]([C@@H](C)O)NC(=O)[C@H](CCN)NC(=O)[C@H](CCN)NC(=O)[C@H](CC(C)C)NC(=O)[C@@H](CC(C)C)NC(=O)[C@H](CCN)NC1=O)[C@@H](C)O [colistin]: inactive: 1.15; `CO[C@H]1C(=O)[C@]2(C)[C@@H](OC)C[C@H]3OC[C@@]3(OC(C)=O)[C@H]2[C@H](OC(=O)c2ccccc2)[C@]2(O)C[C@H](OC(=O)[C@H](O)[C@@H](NC(=O)OC(C)(C)C)c3ccccc3)C(C)=C1C2(C)C` [Cabazitaxel] + CCC(C)CCCC(=O)N[C@@H](CCN)C(=O)N[C@H](C(=O)N[C@@H](CCN)C(=O)N[C@H]1CCNC(=O)[C@H]([C@@H](C)O)NC(=O)[C@H](CCN)NC(=O)[C@H](CCN)NC(=O)[C@H](CC(C)C)NC(=O)[C@@H](CC(C)C)NC(=O)[C@H](CCN)NC1=O)[C@@H](C)O [colistin]: inactive: 0.937.

For the origin of these results see the supplement of paper PMC11546906.
